These are yes or no findings as the source states them, for the method shown. Binding seen in cells or lysates may run through a third protein. Some results given as binding are weak or reduced against the parent protein; the word gives no strength.
Molecular target: YBX1 (Y-box binding protein 1), endogenous in BMSCs (mouse (endogenous in BMSCs)) (UniProt P62960)
Assay: co-IP

By UniProt entry, the sequences of proteins in these tests, tags left out.
UniProt P62960: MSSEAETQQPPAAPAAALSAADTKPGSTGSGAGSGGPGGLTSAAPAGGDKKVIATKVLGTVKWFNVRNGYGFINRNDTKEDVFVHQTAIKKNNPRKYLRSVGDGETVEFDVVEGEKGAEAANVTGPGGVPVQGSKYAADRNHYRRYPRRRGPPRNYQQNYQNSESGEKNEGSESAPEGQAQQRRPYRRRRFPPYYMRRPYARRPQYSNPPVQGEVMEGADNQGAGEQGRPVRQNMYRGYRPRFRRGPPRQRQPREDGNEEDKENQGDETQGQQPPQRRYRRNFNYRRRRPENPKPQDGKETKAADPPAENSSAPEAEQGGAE

binding: binds
B1: FBXO33 (ubiquitin ligase), endogenous in BMSCs (protein, UniProt Q8VE08 1-562)
chain: MLLFLSVPQPRPPGARTRAGAARLVRWRRRQRLRLLQLRRLRGLLRGLRRRPGTGGRRPSRMALCGQAAGAASLPSELIVHIFSFLPAPDRLRASASCSHWRECLFYPALWPQLRICLRVSPAEQPRLEFLMRKCGWFVRELRVEFAAENYLSGGGGPGDGGSGGGTDTGTGGEDGEALQLSSRWLEVLRIYLELVLCVLLSIRNNRNLQKFSLFGDISVVHQQGSLSSTYLSRVDPDGKKIKQIQQLFEEILSNSRQLKWLSCGFMLEIVTPTSLSSLSNPIANTMEHLSLLDNNIPGNSTLITAVELERFVNLRSLALDFCDFTAEMARVLTDSNHVPLQRLSLLVHNASVMLKSLDNMPNDEHWKALSRKSSSLRVYLMVFDIKSEDMLKILKPSIPLERVHFDSYVTCVSGAIVDLISRQYDKFLTHFILMNDMIDTSGFPDLSDNRNEDPLVLLAWRCTKLTLLAIHGYTVWAHNLIAIARLRGSDLKVLQVTEESIDFDQGELADQDVDPVQNLIEQVSLGLGQSWHAVLDIESLSVFTEPNRHFYREMQSFSEDI
